Experimental data reported in PMC12987569.
No constants are given. Whether binding was seen depends on the method and setting. Binding seen in cells or lysates may run through a third protein. Some entries that bind do so weakly or less than the wild type.

Biological target: T1, PLIN3 (human (in human CRC cells)) (UniProt O60664)
T1 sequence: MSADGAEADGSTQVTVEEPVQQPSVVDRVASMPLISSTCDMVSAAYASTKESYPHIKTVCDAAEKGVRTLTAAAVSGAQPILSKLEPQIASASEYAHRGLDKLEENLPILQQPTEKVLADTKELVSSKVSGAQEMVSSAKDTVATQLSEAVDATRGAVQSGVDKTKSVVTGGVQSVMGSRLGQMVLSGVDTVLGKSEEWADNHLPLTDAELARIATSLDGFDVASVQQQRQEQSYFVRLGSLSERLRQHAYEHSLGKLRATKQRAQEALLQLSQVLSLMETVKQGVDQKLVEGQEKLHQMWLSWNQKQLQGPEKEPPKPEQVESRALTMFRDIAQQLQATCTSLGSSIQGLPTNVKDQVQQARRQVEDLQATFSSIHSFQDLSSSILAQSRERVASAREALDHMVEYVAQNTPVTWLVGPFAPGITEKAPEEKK
Test: co-IP; co-immunoprecipitation from CRC cells treated with oleic acid (OA); which protein was precipitated is not told

B1: YTH domain-containing family protein 3 (protein, UniProt Q7Z739 1-585)
chain: MSATSVDQRPKGQGNKVSVQNGSIHQKDAVNDDDFEPYLSSQTNQSNSYPPMSDPYMPSYYAPSIGFPYSLGEAAWSTAGDQPMPYLTTYGQMSNGEHHYIPDGVFSQPGALGNTPPFLGQHGFNFFPGNADFSTWGTSGSQGQSTQSSAYSSSYGYPPSSLGRAITDGQAGFGNDTLSKVPGISSIEQGMTGLKIGGDLTAAVTKTVGTALSSSGMTSIATNSVPPVSSAAPKPTSWAAIARKPAKPQPKLKPKGNVGIGGSAVPPPPIKHNMNIGTWDEKGSVVKAPPTQPVLPPQTIIQQPQPLIQPPPLVQSQLPQQQPQPPQPQQQQGPQPQAQPHQVQPQQQQLQNRWVAPRNRGAGFNQNNGAGSENFGLGVVPVSASPSSVEVHPVLEKLKAINNYNPKDFDWNLKNGRVFIIKSYSEDDIHRSIKYSIWCSTEHGNKRLDAAYRSLNGKGPLYLLFSVNGSGHFCGVAEMKSVVDYNAYAGVWSQDKWKGKFEVKWIFVKDVPNNQLRHIRLENNDNKPVTNSRDTQEVPLEKAKQVLKIIATFKHTTSIFDDFAHYEKRQEEEEAMRRERNRNKQ
binding: binds
